For 23 sequences, binding signal results are on record in PMC7819943, “Rice protein-binding microarrays: a tool to detect cis-acting elements near promoter regions in rice”.

Sequences of proteins named here, by UniProt entry; tags and fusion partners are left off.
UniProt Q0JBA9, entry or part of it: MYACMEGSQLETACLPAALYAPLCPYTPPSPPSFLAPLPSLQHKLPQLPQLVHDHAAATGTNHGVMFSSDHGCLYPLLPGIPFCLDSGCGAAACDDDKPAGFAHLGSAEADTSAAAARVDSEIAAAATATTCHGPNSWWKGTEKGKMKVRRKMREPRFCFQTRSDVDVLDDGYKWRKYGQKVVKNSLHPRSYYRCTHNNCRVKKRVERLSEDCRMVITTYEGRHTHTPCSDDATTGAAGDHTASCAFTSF

Some of the results follow.

For this assay, the target named is OsWRKY34 (Oryza sativa, UniProt Q0JBA9 1-250). The experiment in a line: protein-binding microarray (RPBM); PBS, 2% BSA, 51.3 ng/ul salmon testes DNA, 50 uM zinc acetate, 200 nM TF, 25 C, 1 h; high values mean tight binding. To be noted: protein: recombinant; tags: N-terminal polyhistidine and DsRed monomer fusion (pET32a); label: CyDye5-dUTP incorporated in the synthesized complementary strand; 3' TTTTT single-stranded linker to array surface; dsDNA, one strand shown. An outline of the steps:
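Binding signal here means per-feature fluorescence intensity in arbitrary units. The values were read on an Axon 4000B scanner after a custom Agilent array, double-stranded by primer extension with Cy5-dUTP, was incubated with 200 nM protein at 25 °C for 1 h in PBS with 2% BSA, salmon testes DNA and 50 µM zinc acetate, then washed. The proteins were transcription factors with an N-terminal polyhistidine tag and DsRed, expressed in E. coli BL21-CodonPlus and purified on Ni–NTA.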
Consider “TACCACGTTGTCCGGTATTTCCATCTTCGTTTCCTTCCTACGGAGTCACCTAGTGCAG”, for which the binding signal was 11800 fluorescence intensity (a.u.).
In the case of “AGGTGGTCGGGCGCCAGTTGGAGGGGTGGCCGGTGGCGCTCGGAGTCACCTAGTGCAG”, the binding signal is 8090 fluorescence intensity (a.u.).
Take “TTTTTTTTGACTTTTTCGGTGTATTTTTCGATAAGGGGACCGGAGTCACCTAGTGCAG”: the binding signal is 8940 fluorescence intensity (a.u.).
On to “GCCGCCGCCGCCGCACCCGCCGATCTCCATCCTGCGAGCACGGAGTCACCTAGTGCAG”, for which the binding signal is 8300 fluorescence intensity (a.u.).
As to “TAGTGTTTGTCTGCTTTTTTCTTCTTTTGGTCTAGCAATTCGGAGTCACCTAGTGCAG”, the binding signal is 9100 fluorescence intensity (a.u.).
With “CTTCCCCGCCCCGCCACCTCTCATCTCATCCGCGCCGCCGCGGAGTCACCTAGTGCAG”, the binding signal is 9730 fluorescence intensity (a.u.).
Consider “GGGCTCATTGTGTTGCAATAACTGGTATACTACTAGTTGACGGAGTCACCTAGTGCAG”, for which the binding signal was 8480 fluorescence intensity (a.u.).
On to “AGGGTTTTGGCCTGTGTGTGTGGGGATTTGGCTGGCCAAGCGGAGTCACCTAGTGCAG”, for which the binding signal is 13500 fluorescence intensity (a.u.).
As to “AGATATTCTCCTATGCATATCCATCCCCTTGGGTTCCTACCGGAGTCACCTAGTGCAG”, the binding signal is 8240 fluorescence intensity (a.u.).
Consider “TATCCGCACCACGCCACGCCACGACACCGAAACCGACTTCCGGAGTCACCTAGTGCAG”, for which the binding signal was 8870 fluorescence intensity (a.u.).
“CTTCACCTATTGCTGTTCTTCAAATTGTCCTTACCTGATTCGGAGTCACCTAGTGCAG”: the binding signal was 12200 fluorescence intensity (a.u.).
For “GCGGACGGTGGAGAGGGAGGGTGGAGTGAGAGTGGAGATCCGGAGTCACCTAGTGCAG”, the binding signal is 8480 fluorescence intensity (a.u.).
For the sequence “CGGCGGAATTTTTTTTCTTTTTGGTCTCCCTGTTCCATCTCGGAGTCACCTAGTGCAG”, the binding signal is 8280 fluorescence intensity (a.u.).
Consider “TTCCAGTGTTGATAGGTTAGTCACGGTTTATTAGTAGAGTCGGAGTCACCTAGTGCAG”, for which the binding signal was 9340 fluorescence intensity (a.u.).
As for “CTTGTACTAGCTAGATGCCTTTCAGTACTGCATATGTTATCGGAGTCACCTAGTGCAG”, the binding signal is 8480 fluorescence intensity (a.u.).
Take “AACCTACTAGCTAGCTTAGTGTACTCTGTGTACTGTATATCGGAGTCACCTAGTGCAG”: the binding signal is 8190 fluorescence intensity (a.u.).
Take “ATATATATATATATATATATATATATATATATAAACCCAACGGAGTCACCTAGTGCAG”: the binding signal is 11400 fluorescence intensity (a.u.).
Turning to “GCATGTCCAGTTCGTCTAAAGCTTTCTCAAACATATCTAACGGAGTCACCTAGTGCAG”, the binding signal is 8420 fluorescence intensity (a.u.).
Consider “TGTTAAGATATTAGGGGTAGTTTAGTATTTTCGTATCACTCGGAGTCACCTAGTGCAG”, for which the binding signal was 8740 fluorescence intensity (a.u.).
Consider “AGACCCTTGCATTCAGAGACATATCACCCCAAGCTCCAGTCGGAGTCACCTAGTGCAG”, for which the binding signal is 8800 fluorescence intensity (a.u.).
“CCAGTTTTGTTGTGTGTCACTGCTGTTTTGTTTCATGAAACGGAGTCACCTAGTGCAG”: the binding signal was 10800 fluorescence intensity (a.u.).
Take “TTCCATGCTTGATGTGTGAGTGATGTGGCCATAAATTAGACGGAGTCACCTAGTGCAG”: the binding signal was 8990 fluorescence intensity (a.u.).
As to “GTAATTTAACTCTCTCAGCGGTTTTAGTGGGTTGTTTCGTCGGAGTCACCTAGTGCAG”, the binding signal was 8880 fluorescence intensity (a.u.).
